PubChem BioAssay AID540256 (National Center for Advancing Translational Sciences (NCATS), 2011)
Screen size: about 300,000 compounds; about 3,700 (1.2%) were called active. Inconclusive means that the source gave no clear call. Such entries were picked first, then a sample of the others. Calls come from the whole dose curve; tested in HEK293 cells. Potencies beside an inconclusive call are fits to weak or partial responses and may not hold up.
Potency is the fitted concentration of half-maximal effect.

Experiment: qHTS for Inhibitors of binding or entry into cells for Lassa Virus; note: nearly all actives have a fitted effect of over 50% in size
Conditions: Lassa virus pseudotype entry inhibition, cell reporter; series mostly up to 37.9 µM
With `CCc1nc(OCc2ccccc2)c2sc3nc4c(cc3c2n1)COC(C)(C)C4` the Potency was “inactive”.
With `CCOC(=O)CSc1nnc(-c2c[nH]c3ccccc23)o1` the Potency was “inactive”.
For `COc1cc2c(C(=O)N3CCN(c4cccc(C)c4)C(C)C3)cn(CC(C)C)c(=O)c2cc1OC` (stereo not drawn), the Potency was inconclusive: 6.31 µM [inhibitor, single point].
In the case of `O=C(c1ccccc1)C1CCN(c2ncccc2[N+](=O)[O-])CC1`, the Potency is reported as inconclusive: 7.08 µM [inhibitor, full curve, poor fit].
For `CN1CCC(C(=O)Nc2n[nH]c3nnc(-c4ccccc4)cc23)CC1`, the Potency was inconclusive: 0.396 µM [activator, full curve, poor fit].
In the case of `O=C(COn1nnc2ccc(S(=O)(=O)N3CCOCC3)cc21)NCCc1ccccc1`, the Potency is reported as “inactive”.
For `Cc1ccc(Oc2nc(-c3ccccc3)ncc2S(=O)(=O)c2ccc(C)cc2)cc1`, the Potency was inconclusive: 3.16 µM [inhibitor, partial curve, poor fit].
For `Cn1c(/C=C/c2ccc(Br)cc2)c([N+](=O)[O-])c(=O)n(C)c1=O`, the Potency was inconclusive: 20 µM [inhibitor, partial curve, poor fit].
In the case of `c1csc(-c2nnc3ccccn23)c1`, the Potency is reported as inconclusive: 6.51 µM [activator, partial curve, poor fit].
In the case of `O=S(=O)(NCC(Nc1ccccc1)c1ccccc1)c1ccc(Cl)cc1` (stereo not drawn), the Potency is reported as inconclusive: 29.1 µM [inhibitor, single point].
For `CSc1nc(-c2ccccc2)nn1C(=O)c1ccc(Cl)cc1`, the Potency was inconclusive: 0.891 µM [activator, partial curve, poor fit].
For `FC(F)(F)c1cnc(COc2cc(Cl)cc(Cl)c2)c(Cl)c1`, the Potency was “inactive”.
With `CNC(=O)c1csc(-c2cccs2)n1` the Potency was “inactive”.
With `CS(=O)(=O)N(CCc1ccccc1)CC(=O)N1CCN(Cc2ccccc2)CC1` the Potency was inconclusive: 25.9 µM [inhibitor, single point].
With `O=c1cc(N/N=C/c2ccccc2)[nH]c(=O)[nH]1` the Potency was inconclusive: 8.91 µM [inhibitor, partial curve, poor fit].
For `CCOc1ccc(C(=O)C(C)OC(=O)C2CCN(c3ccc(C(F)(F)F)cn3)CC2)cc1` (stereo not drawn), the Potency was inconclusive: 35.5 µM [inhibitor, single point].
For `CCCN1C(C(=O)c2ccccc2)=C(OC(=O)c2ccc(F)cc2)c2ccccc2S1(=O)=O`, the Potency was “inactive”.
In the case of `COc1ccc(CCN(C(=O)C(F)(F)F)C(C(=O)NC2CCCC2)c2cccs2)cc1` (stereo not drawn), the Potency is reported as inconclusive: 1.64 µM [inhibitor, full curve, poor fit].
